{"sequences": {"note": "The chains behind the UniProt entries cited, without tags or fusion partners. Residues count along the entry.", "UniProt O60894, 27-148": "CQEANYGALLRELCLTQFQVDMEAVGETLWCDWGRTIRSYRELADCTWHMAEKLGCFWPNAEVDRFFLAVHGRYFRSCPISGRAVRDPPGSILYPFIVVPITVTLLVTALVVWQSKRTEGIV", "UniProt P30988, 25-474": "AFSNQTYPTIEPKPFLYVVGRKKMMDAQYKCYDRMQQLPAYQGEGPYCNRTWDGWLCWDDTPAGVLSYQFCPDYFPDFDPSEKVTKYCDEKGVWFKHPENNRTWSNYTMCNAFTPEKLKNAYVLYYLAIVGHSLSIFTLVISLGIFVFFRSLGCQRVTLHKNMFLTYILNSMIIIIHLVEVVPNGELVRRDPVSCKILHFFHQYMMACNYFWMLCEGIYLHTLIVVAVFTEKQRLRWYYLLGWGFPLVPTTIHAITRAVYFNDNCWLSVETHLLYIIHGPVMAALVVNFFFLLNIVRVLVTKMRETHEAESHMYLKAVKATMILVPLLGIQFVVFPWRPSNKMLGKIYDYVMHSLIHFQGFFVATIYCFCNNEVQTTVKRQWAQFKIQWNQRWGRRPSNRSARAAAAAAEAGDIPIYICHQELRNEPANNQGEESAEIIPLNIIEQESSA", "UniProt Q16602, 23-461": "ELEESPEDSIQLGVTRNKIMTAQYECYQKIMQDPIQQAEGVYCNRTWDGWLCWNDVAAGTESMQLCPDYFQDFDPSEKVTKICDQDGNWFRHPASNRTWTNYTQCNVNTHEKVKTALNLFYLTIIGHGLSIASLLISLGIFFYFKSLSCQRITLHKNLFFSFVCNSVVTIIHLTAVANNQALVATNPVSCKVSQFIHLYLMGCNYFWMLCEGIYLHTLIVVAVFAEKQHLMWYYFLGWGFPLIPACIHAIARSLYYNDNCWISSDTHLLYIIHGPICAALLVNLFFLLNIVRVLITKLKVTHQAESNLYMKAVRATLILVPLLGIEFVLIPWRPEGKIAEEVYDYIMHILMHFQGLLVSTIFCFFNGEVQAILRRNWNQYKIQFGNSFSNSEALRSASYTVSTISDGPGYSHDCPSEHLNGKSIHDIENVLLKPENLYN"}, "source": "patent US20200353088A1", "about": "“PEPTIDE CONJUGATE CGRP RECEPTOR ANTAGONISTS AND METHODS OF PREPARATION AND USES THEREOF” (Auckland UniServices Limited, priority 2017, published 2020)", "format_in_all_cases": "cell-based", "key": {"[1]": {"molecular_target": "T1, AMY1 (CTR/RAMP1) receptor (Homo sapiens, UniProt O60894+P30988)", "T1 construct": "expressed in transfected cells; host or cells: Cos 7 (African green monkey kidney), transient transfection with polyethylenimine", "test": "cAMP assay with antagonist pre-incubation, with or without wash step, CTR/RAMP1 transfected Cos 7 cells", "method": "Cos 7 cells were cultured in Dulbecco's Modified Eagle Medium (DMEM) supplemented with 8% heat inactivated fetal bovine serum and kept in a 37° C. humidified 95% air/5% CO2 incubator. […] In a different specific experimental paradigm, media was replaced with DMEM containing 1 mM isobutylmethylxanthine and 0.1% bovine serum albumin for 30 min. After this period, 25 μl of antagonist or media was added for 15 minutes at 37° C. as a pre-incubation period. After pre-incubation, the antagonist or media were aspirated from some wells, washed once with phosphate-buffered saline and replaced with 75 μl new media. The other wells with antagonist were not washed. […] Once human alpha CGRP was added, the cells were incubated at 37° C. for 15 minutes. The media was then aspirated from the wells and reactions terminated with ice-cold absolute ethanol. […] Calculation of Antagonist Potency Values Data were analysed using Graphpad Prism 7. Antagonist pKB or pA2 values were obtained using Global Schild analysis. […] Where a single concentration of antagonist was used, pA2 values are used to describe antagonist potency."}, "[2]": {"molecular_target": "T2, CGRP (CLR/RAMP1) receptor (Homo sapiens, UniProt O60894+Q16602)", "T2 construct": "expressed in transfected cells; host or cells: Cos 7 (African green monkey kidney), transient transfection with polyethylenimine", "test": "Antagonism of CGRP-induced cAMP accumulation in Cos 7 cells transfected with CLR/RAMP1", "settings": "transfected Cos-7 cells", "method": "1. Antagonism of CGRP-Induced cAMP Accumulation in Transfected CGRP Receptor Expressing Cells\nSimian vacuolating virus 40 (SV40) transformed African green monkey kidney (Cos 7) cells were transiently transfected with calcitonin receptor-like receptor (CLR) or calcitonin receptor (CTR) together with receptor activity-modifying protein 1 (RAMP1) to form CGRP or AMY1(a) receptors.\nOn the day of experimentation, media was replaced with 50 μl DMEM containing 1 mM isobutylmethylxanthine and 0.1% bovine serum albumin for 30 min. All peptides were diluted in assay medium and after the 30 min incubation, 25 μl antagonists were added, followed immediately by 25 μl human alpha CGRP (hαCGRP), giving a total assay volume of 100 μl. Once human alpha CGRP was added, the cells were incubated at 37° C. for 15 minutes. The media was then aspirated from the wells and reactions terminated with ice-cold absolute ethanol. Ethanol was evaporated to dryness and cAMP was quantified using a commercially-available assay (LANCE Perkin Elmer).\n3. Calculation of Antagonist Potency Values\nData were analysed using Graphpad Prism 7. Antagonist pKB or pA2 values were obtained using Global Schild analysis. […] Where a single concentration of antagonist was used, pA2 values are used to describe antagonist potency."}, "[3]": {"molecular_target": "T3, CGRP receptor endogenously expressed in SK-N-MC cells (Homo sapiens, UniProt O60894+Q16602)", "T3 construct": "SK-N-MC are human neuroblastoma-derived cells that endogenously express a CGRP receptor; endogenous in cells; host or cells: SK-N-MC human neuroblastoma-derived cells", "test": "Antagonism of CGRP-induced cAMP accumulation in SK-N-MC cells", "method": "The cells were cultured in DMEM supplemented with 8% heat inactivated fetal bovine serum and kept in a 37° C. humidified 95% air/5% CO2 incubator. […] On the day of experimentation, media was replaced with DMEM containing 1 mM isobutylmethylxanthine and 0.1% bovine serum albumin for 30 min. After this period antagonists were added, followed by human alpha CGRP. Once human alpha CGRP was added, the cells were incubated at 37° C. for 15 minutes. The media was then aspirated from the wells and reactions terminated with ice-cold absolute ethanol. […] Calculation of Antagonist Potency Values Data were analysed using Graphpad Prism 7. Antagonist pKB or pA2 values were obtained using Global Schild analysis. […] Where a single concentration of antagonist was used, pA2 values are used to describe antagonist potency."}, "[4]": {"molecular_target": "T2, CGRP (CLR/RAMP1) receptor", "test": "cAMP assay with antagonist pre-incubation, with or without wash step, CLR/RAMP1 transfected Cos 7 cells"}, "[5]": {"settings": "15 min antagonist pre-incubation, not washed"}, "[6]": {"settings": "15 min antagonist pre-incubation, washed once with PBS"}, "[7]": {"settings": "calculated from Table 2, with wash vs. without wash"}}, "note": "At least one structure is not confirmed: it was looked up by name or label, or the drawing left a doubt. Where a SMILES comes first, the peptide text is derived from it. The star is where a group is joined. Ethyl(2-palmitoyloxy) = CCCCCCCCCCCCCCCC(=O)OCC*", "data": [{"smiles": "CCCCCCCCCCCCCCCC(=O)OCCSC[C@H](NC(=O)[C@@H](NC(=O)[C@@H](NC(=O)CNC(=O)CNC(=O)[C@H](CO)NC(=O)[C@H](CCCNC(=N)N)NC(=O)[C@H](CO)NC(=O)[C@H](CC(C)C)NC(=O)[C@H](CC(C)C)NC(=O)CNC(=O)[C@H](C)NC(=O)[C@H](CC(C)C)NC(=O)[C@H](CCCNC(=N)N)NC(=O)[C@H](Cc1c[nH]cn1)NC(=O)[C@@H](NC(=O)[C@@H](N)C(C)C)[C@@H](C)O)C(C)C)C(C)C)C(=O)N[C@@H](CC(N)=O)C(=O)N[C@@H](CC(N)=O)C(=O)N[C@@H](Cc1ccccc1)C(=O)N[C@H](C(=O)N1CCC[C@H]1C(=O)N[C@H](C(=O)N[C@@H](CC(N)=O)C(=O)N[C@H](C(=O)NCC(=O)N[C@@H](CO)C(=O)N[C@@H](CCCCN)C(=O)N[C@@H](C)C(=O)N[C@@H](Cc1ccccc1)C(N)=O)C(C)C)[C@@H](C)O)C(C)C", "note": "[A5, K24C(S-Pam) CGRP8-37] (H-VTHRLAGLLSRSGGVVC(Ethyl(2-palmitoyloxy))NNFVPTNVGSKAF-NH2)", "values": [{"measurement": "A2, AMY1 (CTR/RAMP1), Without wash", "setting": "[1]; [5]", "value": "(A2: 0.37 nM)"}, {"measurement": "A2, AMY1 (CTR/RAMP1), With wash", "setting": "[1]; [6]", "value": "(A2: 3.5 nM)"}, {"measurement": "Fold change reduction in pA2 with wash, AMY1 (CTR/RAMP1)", "setting": "[1]; [7]", "value": 9.6, "unit": "fold"}, {"measurement": "A2 (antilog of the negative pA2), CGRP (CLR/RAMP1)", "setting": "[2]", "value": "(A2: 6.8 nM)"}, {"measurement": "A2 (antilog of the negative pA2), SK-N-MC", "setting": "[3]", "value": "(A2: 0.09 nM)"}, {"measurement": "A2, CGRP (CLR/RAMP1), Without wash", "setting": "[4]; [5]", "value": "(A2: 0.05 nM)"}, {"measurement": "A2, CGRP (CLR/RAMP1), With wash", "setting": "[4]; [6]", "value": 0.74, "unit": "nM"}, {"measurement": "Fold change reduction in pA2 with wash, CGRP (CLR/RAMP1)", "setting": "[4]; [7]", "value": 14, "unit": "fold"}]}]}
